# From PMC1866352
# Amino acid sequences for entries named in this document (tags omitted).
# UniProt P42859: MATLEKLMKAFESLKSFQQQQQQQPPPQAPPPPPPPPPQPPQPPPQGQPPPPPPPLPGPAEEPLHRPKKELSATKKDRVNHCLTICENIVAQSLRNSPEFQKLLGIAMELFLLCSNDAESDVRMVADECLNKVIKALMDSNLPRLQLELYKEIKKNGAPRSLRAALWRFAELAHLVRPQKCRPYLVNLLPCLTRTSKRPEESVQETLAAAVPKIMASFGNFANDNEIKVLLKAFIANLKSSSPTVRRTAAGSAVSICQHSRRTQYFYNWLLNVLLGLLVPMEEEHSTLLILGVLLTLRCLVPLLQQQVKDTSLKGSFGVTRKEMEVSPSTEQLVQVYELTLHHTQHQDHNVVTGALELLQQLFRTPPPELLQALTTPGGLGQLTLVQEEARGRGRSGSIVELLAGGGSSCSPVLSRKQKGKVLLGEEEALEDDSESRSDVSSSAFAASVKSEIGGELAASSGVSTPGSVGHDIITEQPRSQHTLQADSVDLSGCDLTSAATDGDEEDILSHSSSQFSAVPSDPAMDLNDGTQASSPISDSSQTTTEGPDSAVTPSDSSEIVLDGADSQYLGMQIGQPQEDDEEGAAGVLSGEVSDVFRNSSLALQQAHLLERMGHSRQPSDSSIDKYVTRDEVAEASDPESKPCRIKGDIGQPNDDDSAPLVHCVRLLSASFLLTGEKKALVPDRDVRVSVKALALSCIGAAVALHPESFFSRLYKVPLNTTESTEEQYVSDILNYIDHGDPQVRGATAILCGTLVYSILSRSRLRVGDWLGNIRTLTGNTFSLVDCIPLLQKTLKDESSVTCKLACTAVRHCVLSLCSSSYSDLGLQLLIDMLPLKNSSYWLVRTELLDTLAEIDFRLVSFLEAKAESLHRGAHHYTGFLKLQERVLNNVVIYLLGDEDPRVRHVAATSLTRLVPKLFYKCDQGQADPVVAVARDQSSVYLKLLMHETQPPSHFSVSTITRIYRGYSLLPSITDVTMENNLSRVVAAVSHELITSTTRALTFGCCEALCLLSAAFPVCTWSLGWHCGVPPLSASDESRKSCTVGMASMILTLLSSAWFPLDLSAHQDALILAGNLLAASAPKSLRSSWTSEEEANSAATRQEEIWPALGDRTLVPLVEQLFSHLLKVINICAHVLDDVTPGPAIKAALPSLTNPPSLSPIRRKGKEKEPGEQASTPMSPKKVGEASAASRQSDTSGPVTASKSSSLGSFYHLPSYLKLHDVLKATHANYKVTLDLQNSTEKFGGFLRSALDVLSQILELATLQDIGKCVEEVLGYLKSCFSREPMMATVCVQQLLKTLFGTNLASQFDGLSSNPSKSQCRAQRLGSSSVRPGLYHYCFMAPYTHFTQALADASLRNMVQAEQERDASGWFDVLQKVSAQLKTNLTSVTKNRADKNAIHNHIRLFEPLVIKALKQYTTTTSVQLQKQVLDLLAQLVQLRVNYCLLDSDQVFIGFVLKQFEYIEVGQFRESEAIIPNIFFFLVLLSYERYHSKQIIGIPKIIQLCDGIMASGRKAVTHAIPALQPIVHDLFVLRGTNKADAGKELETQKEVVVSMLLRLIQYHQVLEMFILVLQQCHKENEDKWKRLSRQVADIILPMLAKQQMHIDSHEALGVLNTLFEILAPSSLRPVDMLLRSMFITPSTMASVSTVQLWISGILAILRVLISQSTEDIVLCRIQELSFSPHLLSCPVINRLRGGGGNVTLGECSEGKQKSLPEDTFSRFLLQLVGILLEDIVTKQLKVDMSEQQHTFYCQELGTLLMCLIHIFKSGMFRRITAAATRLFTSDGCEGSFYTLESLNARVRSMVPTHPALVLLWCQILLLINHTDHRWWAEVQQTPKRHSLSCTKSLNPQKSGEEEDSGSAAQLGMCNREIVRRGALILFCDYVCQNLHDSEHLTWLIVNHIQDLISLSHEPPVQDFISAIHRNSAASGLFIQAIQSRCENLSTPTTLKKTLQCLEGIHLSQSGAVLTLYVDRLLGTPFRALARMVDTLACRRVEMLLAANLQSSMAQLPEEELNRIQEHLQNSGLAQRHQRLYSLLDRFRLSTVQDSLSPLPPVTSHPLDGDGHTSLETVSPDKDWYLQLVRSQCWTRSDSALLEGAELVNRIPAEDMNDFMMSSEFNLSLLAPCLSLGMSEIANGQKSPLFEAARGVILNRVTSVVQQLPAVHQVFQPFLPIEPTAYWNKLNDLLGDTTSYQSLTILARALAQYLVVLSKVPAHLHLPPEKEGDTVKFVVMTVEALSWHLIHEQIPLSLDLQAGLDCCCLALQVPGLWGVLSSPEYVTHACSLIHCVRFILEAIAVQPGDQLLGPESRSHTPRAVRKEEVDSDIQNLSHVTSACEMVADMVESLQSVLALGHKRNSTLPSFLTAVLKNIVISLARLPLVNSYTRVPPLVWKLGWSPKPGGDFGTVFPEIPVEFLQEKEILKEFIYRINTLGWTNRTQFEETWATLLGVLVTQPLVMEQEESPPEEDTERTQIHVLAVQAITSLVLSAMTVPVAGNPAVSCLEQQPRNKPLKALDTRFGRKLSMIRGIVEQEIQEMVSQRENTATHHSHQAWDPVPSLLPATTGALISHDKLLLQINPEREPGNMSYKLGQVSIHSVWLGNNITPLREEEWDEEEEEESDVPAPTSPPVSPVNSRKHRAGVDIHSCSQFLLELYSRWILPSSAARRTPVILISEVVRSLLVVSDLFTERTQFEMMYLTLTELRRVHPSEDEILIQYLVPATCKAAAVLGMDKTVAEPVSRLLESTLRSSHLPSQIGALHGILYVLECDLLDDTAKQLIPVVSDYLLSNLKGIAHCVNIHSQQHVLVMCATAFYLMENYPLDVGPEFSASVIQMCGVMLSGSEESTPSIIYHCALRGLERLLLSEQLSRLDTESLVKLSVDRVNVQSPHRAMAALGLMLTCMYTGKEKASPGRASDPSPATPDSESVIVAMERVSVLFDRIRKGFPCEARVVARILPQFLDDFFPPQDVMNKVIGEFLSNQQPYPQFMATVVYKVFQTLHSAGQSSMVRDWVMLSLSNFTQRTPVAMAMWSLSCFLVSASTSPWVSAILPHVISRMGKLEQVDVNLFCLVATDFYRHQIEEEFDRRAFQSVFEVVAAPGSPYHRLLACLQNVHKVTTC
# UniProt P52480: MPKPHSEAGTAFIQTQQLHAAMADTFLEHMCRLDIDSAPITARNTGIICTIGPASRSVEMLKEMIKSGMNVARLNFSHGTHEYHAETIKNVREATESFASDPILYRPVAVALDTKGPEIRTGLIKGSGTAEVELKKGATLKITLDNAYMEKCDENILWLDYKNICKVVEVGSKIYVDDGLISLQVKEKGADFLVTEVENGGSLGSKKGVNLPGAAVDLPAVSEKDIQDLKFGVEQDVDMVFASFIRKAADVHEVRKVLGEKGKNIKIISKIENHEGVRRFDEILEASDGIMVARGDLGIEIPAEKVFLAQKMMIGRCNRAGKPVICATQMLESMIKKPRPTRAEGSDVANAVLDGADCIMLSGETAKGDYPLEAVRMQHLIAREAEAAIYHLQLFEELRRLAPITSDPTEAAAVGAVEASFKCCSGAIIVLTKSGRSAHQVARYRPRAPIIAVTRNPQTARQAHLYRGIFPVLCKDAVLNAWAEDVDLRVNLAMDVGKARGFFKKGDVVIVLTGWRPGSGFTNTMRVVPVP
# Results are given in words; binding and its absence hold for the method and conditions named. In cells and extracts the contact can be indirect. Some entries that bind do so weakly or less than the wild type.
# Biological target: Htt (wild-type, from wild-type mouse brain) (mouse (endogenous in mouse brain)) (UniProt P42859)
# Assay: co-IP; whole-brain lysates (500 ug, T-PER with protease inhibitors) of wild-type or YAC128 mice; monoclonal Htt antibody (Chemicon 2166) overnight at 4 °C, protein G; washed 5x with TBS/0.05% Tween; Western blots probed for the partners
substance,measurement,value
PKM2 (mouse brain) (from UniProt P52480 1-531),binding,binds
